Where two headings read alike, the source gives them in different places. No constants are given. Whether binding was seen depends on the method and setting. In cells and extracts the contact can be indirect. Some entries that bind do so weakly or less than the wild type. Values belong to the molecule of their own block, whether it stands above or below them.
Experiments:
[1] = target: RFWD2 (constitutive photomorphogenic 1), FLAG-tagged, overexpressed from the human RFWD2 cDNA (human) (UniProt Q8NHY2); test: co-IP; Pierce Direct Magnetic IP/Co-IP kit; FLAG antibody for IP of FLAG-RFWD2, immunoblot for the partner; RFWD2 WT/OE ARP1 and H929 cells; IgG of the same host as negative control
[2] = target: RFWD2 (constitutive photomorphogenic 1), FLAG-tagged, overexpressed from the human RFWD2 cDNA (human) (UniProt Q8NHY2); test: as above; remark: listed apart in the source

Sequences of proteins named here, by UniProt entry; tags and fusion partners are left off.
UniProt Q8NHY2: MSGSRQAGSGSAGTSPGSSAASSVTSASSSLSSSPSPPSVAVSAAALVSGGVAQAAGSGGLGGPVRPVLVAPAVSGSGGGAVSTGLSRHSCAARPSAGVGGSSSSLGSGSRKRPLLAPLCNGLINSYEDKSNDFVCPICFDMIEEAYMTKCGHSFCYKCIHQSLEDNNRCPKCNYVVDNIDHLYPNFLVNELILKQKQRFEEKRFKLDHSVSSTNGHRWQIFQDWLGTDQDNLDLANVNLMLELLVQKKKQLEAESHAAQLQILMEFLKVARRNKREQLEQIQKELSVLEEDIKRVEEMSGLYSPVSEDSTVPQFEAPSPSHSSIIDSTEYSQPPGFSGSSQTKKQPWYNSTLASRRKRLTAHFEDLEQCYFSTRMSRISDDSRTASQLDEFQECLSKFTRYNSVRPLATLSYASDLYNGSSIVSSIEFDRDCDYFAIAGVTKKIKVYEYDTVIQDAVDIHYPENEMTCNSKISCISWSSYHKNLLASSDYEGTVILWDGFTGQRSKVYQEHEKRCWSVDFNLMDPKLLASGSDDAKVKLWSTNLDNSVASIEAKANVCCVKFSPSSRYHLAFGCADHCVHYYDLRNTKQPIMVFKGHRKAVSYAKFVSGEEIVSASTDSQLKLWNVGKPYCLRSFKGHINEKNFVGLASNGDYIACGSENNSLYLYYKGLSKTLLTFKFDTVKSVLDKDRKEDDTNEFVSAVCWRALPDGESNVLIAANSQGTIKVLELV
UniProt P46527: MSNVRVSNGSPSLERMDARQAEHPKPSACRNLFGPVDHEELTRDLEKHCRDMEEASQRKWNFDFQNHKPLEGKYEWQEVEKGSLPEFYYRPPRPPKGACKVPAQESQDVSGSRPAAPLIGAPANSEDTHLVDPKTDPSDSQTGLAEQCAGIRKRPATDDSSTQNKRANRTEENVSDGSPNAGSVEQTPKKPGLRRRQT

binding [1]: binds
Molecule: P27 (cyclin/CDK2 inhibitor) (from UniProt P46527 1-198)

binding [2]: binds
B1: RING-finger and CHY-zinc-finger domain-containing protein 1 (RCHY1) (enzyme, UniProt Q96PM5 1-261)
chain: MAATAREDGASGQERGQRGCEHYDRGCLLKAPCCDKLYTCRLCHDNNEDHQLDRFKVKEVQCINCEKIQHAQQTCEECSTLFGEYYCDICHLFDKDKKQYHCENCGICRIGPKEDFFHCLKCNLCLAMNLQGRHKCIENVSRQNCPICLEDIHTSRVVAHVLPCGHLLHRTCYEEMLKEGYRCPLCMHSALDMTRYWRQLDDEVAQTPMPSEYQNMTVDILCNDCNGRSTVQFHILGMKCKICESYNTAQAGGRRISLDQQ

Source: article PMC8097052
